{"source": "the supplement of paper PMC10338343", "note": "± gives the standard deviation. Only a part is listed here, and it is no random draw. The uncertainty is large for many entries."}
{"test_system": "MIWI (PIWIL1) piRISC loaded with Kctd7 piRNA (30 nt)", "assay": "pre-steady-state target cleavage rate (min^-1); MIWI and MILI are mouse PIWI proteins and EfPiwi is from a freshwater sponge; tags in brackets are library labels; higher = faster piRNA-guided slicing of the target", "conditions": "guide: Kctd7 piRNA 5'p-UGUUAAUCUCUCAGAGAAGGUGACAGUGAU; auxiliary factor: 500 nM mouse GTSF1", "summary_of_the_method": "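Sequencing of uncleaved targets, normalised to depth and to weakly complementary targets, was the readout of this Cleave-'n-Seq assay. A transcribed, DNA-blocked target RNA library (0.1 nM) was mixed with 1 nM active affinity-purified piRISC carrying one synthetic guide, with or without 500 nM GTSF1 partner protein, in HEPES–potassium acetate buffer at 33 °C for 0–8 or 0–960 min. Three trials were pooled, k3 was capped at 0.0001 min^-1, and a burst-and-steady-state fit gave the pre-steady-state cleavage rate.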"}
{"sequence": "UAGUGACAGUGCUUCUCUCAGAGAUUAUCA", "pre-steady-state target cleavage rate": "0.000742 ± 0.011"}
{"sequence": "UAGUGACAGUGGAUCUCUGAGAGAUUAACCA", "pre-steady-state target cleavage rate": "0.000249 ± 0.014"}
{"sequence": "UAGUGACUCACCUUCUCUGACAGAUAUUGA", "pre-steady-state target cleavage rate": "0.000488 ± 0.015"}
{"sequence": "UAGUGACACACCUUCUCUGAGACAUUAAGA", "pre-steady-state target cleavage rate": "0.00138 ± 0.0055"}
{"sequence": "UAGACUGUCACCUUGAGUGAGAGAUUUUGA", "pre-steady-state target cleavage rate": "0.000156 ± 0.042"}
{"sequence": "UAGUGACACACCUUCUCAUGAGAGAUUAACA", "pre-steady-state target cleavage rate": "0.00089 ± 0.013"}
{"sequence": "UAGUGACAGACCUUCUUGAGAGAUUAACA", "pre-steady-state target cleavage rate": "0.000669 ± 0.017"}
{"sequence": "UAGUGACAGACCAACUCUGAGAGAUUAUGA", "pre-steady-state target cleavage rate": "0.000105 ± 0.027"}
{"sequence": "UAGUGACACACCUUCUCUCUGAGAUAUUGA", "pre-steady-state target cleavage rate": "0.000932 ± 0.0089"}
{"sequence": "UAGUGUGUCACCUUCUGAGAGAGAUUUUGA", "pre-steady-state target cleavage rate": "0.00289 ± 0.006"}
{"sequence": "UAGUGACAGUGGAAGAGACAGAGUAAAACA", "pre-steady-state target cleavage rate": "0.000114 ± 0.05"}
{"sequence": "UAGUGACUCACCUUGAGUGAGAGAUUAACA", "pre-steady-state target cleavage rate": "0.000885 ± 0.0089"}
{"sequence": "UAGUGACAGUCCUUCUCUGAGUGAUAAACA", "pre-steady-state target cleavage rate": "0.00126 ± 0.0057"}
{"sequence": "UAGUGACAGACCUUCUCAUGAGAGAUUAACA", "pre-steady-state target cleavage rate": "0.000949 ± 0.0092"}
{"sequence": "UAGACUGUCACCUUCAGAGAGAGAUUUUGA", "pre-steady-state target cleavage rate": "0.00213 ± 0.0054"}
{"sequence": "UAGUGACAGUGCUUCUCUGAGAGACUUAACA", "pre-steady-state target cleavage rate": "0.00147 ± 0.0034"}
{"sequence": "ACUCACUGUCACCUUCUCUGAGAGAUUAACA", "pre-steady-state target cleavage rate": "0.781 ± 0.054"}
{"sequence": "UAGUGACUCACCUAGUCUGAGAGAUUAUGA", "pre-steady-state target cleavage rate": "0.000409 ± 0.02"}
{"sequence": "UUCACUGUCACCUUCUCUGAGUCUAAUUGA [g10:g29:cont:t1A]", "pre-steady-state target cleavage rate": "0.00252 ± 0.0034"}
{"sequence": "UAGUGACAGUGGAAGUCUGACUCAUUAACA", "pre-steady-state target cleavage rate": "0.000167 ± 0.018"}
{"sequence": "UAGUGACACACCUUCUCUGAGAAUUAACA", "pre-steady-state target cleavage rate": "0.00401 ± 0.0044"}
{"sequence": "AUCACUGUCACCUUCUCUGACUCAUAUUGA", "pre-steady-state target cleavage rate": "0.00142 ± 0.0051"}
{"sequence": "UAGUGACACAGCUUCUCUGAGAGAUUAUGA", "pre-steady-state target cleavage rate": "0.00591 ± 0.0022"}
{"sequence": "UAGUCUGUCACCUUCUCACAGAGAUAUUGA", "pre-steady-state target cleavage rate": "0.00214 ± 0.0053"}
{"sequence": "UAGUGACAGUGCUUCACAGAGAGAUUAACA", "pre-steady-state target cleavage rate": "0.000763 ± 0.012"}
{"sequence": "UACACUCACACCUUCUCUGAGAGAUAUUGA", "pre-steady-state target cleavage rate": "0.0241 ± 0.012"}
{"sequence": "UAGUGACAGACCUUCUCUGGAGAGAUUAACA", "pre-steady-state target cleavage rate": "0.000962 ± 0.012"}
{"sequence": "UAGUGACAGUCGUUCUCUGAGAGAUAAACA", "pre-steady-state target cleavage rate": "0.00113 ± 0.0084"}
{"sequence": "UAGUGACAGACCUUCUCUGAGAGUUUAAGA", "pre-steady-state target cleavage rate": "0.00291 ± 0.0048"}
{"sequence": "UAGUGUGUCACGAACUCUGAGAGAUUAUGA", "pre-steady-state target cleavage rate": "0.000511 ± 0.017"}
{"sequence": "UAGACUGUCACAUUCUCUGAGAGAUUAACA", "pre-steady-state target cleavage rate": "0.77 ± 0.051"}
{"sequence": "UAGUGACACACCUUCACAGAGAGAUUAACA", "pre-steady-state target cleavage rate": "0.00498 ± 0.0055"}
{"sequence": "UAGUGACUCUGCUUCUCUGAGAGAUUAAGA", "pre-steady-state target cleavage rate": "0.00127 ± 0.0041"}
{"sequence": "UAGUGACUCACCUUCUCUGAGCAGAUUAACA", "pre-steady-state target cleavage rate": "0.00114 ± 0.0076"}
{"sequence": "AUCACUGUCACCUUGCUCUGAGAGAUUAACA", "pre-steady-state target cleavage rate": "1.1 ± 0.18"}
{"sequence": "AUCACUGUCACCUUUCUGAGAGAUUAACA", "pre-steady-state target cleavage rate": "0.532 ± 0.025"}
{"sequence": "UAGUGACAGUCCUUCUCUGAGUAGAUUAACA", "pre-steady-state target cleavage rate": "0.000394 ± 0.015"}
{"sequence": "UAGUGACAGUGGAAGAGACUCAGAUUAACU [g2:g9:cont:t1U]", "pre-steady-state target cleavage rate": "0.000183 ± 0.02"}
{"sequence": "UAGUGACAGUGCUUCUCUGAGAGUUAAACA", "pre-steady-state target cleavage rate": "0.000438 ± 0.0089"}
{"sequence": "UAGUGACAGUCCUUCUCUGAAGAUUAACA", "pre-steady-state target cleavage rate": "0.000454 ± 0.013"}
{"sequence": "UAGUGACACACCUUCUCUCUGAGAUUAAGA", "pre-steady-state target cleavage rate": "0.00258 ± 0.0043"}
{"sequence": "AUCACUGUCACCUUCUCUGACUCAUUUUGA", "pre-steady-state target cleavage rate": "0.00216 ± 0.0036"}
{"sequence": "UUCACUGUCAGGUUCUCUGAGAGAUAUUGA", "pre-steady-state target cleavage rate": "0.00125 ± 0.0047"}
{"sequence": "UAGUGACACACCUUCUCUGAGUCAUUAUGA", "pre-steady-state target cleavage rate": "0.000324 ± 0.021"}
{"sequence": "UAGUGACAGUGGAACUCUGAGAAUUAACA", "pre-steady-state target cleavage rate": "0.000122 ± 0.037"}
{"sequence": "UAGUGACUCACCUUCUCUGAGAGAAUAAGA", "pre-steady-state target cleavage rate": "0.02 ± 0.0073"}
{"sequence": "UAGUGACAGUGGUUCUCUGAGAGAUUAACA [g2:g18:cont:t1A]", "pre-steady-state target cleavage rate": "0.00044 ± 0.0066"}
{"sequence": "UAGUGACUCACCUUCUCUCUGAGAUUAAGA", "pre-steady-state target cleavage rate": "0.000923 ± 0.0067"}
{"sequence": "UAGUGACACACCUUCUCUGAGUCAUUUUGA", "pre-steady-state target cleavage rate": "0.00057 ± 0.017"}
{"sequence": "UUCACUGUCUGGUUCUCUGAGAGAUAUUGA", "pre-steady-state target cleavage rate": "0.000379 ± 0.018"}
{"sequence": "UAGUGACAGUGGAUCUCUGACUCAUUAACA", "pre-steady-state target cleavage rate": "0.000199 ± 0.016"}
{"sequence": "UAGUGACAGUGGAACUCUGAGAGUUUAUCA", "pre-steady-state target cleavage rate": "0.000124 ± 0.039"}
{"sequence": "UAGUGAGUCACCUUCUCUGACUGAUUAAGA", "pre-steady-state target cleavage rate": "0.00114 ± 0.0079"}
{"sequence": "UAGUGUGUCACCUUCUCUGAGACUAAUUGA [g9:g25:cont:t1A]", "pre-steady-state target cleavage rate": "0.00126 ± 0.007"}
{"sequence": "UAGUGACAGUCCUUCUCUGACUCAUUAUGA", "pre-steady-state target cleavage rate": "0.000213 ± 0.01"}
{"sequence": "UAGUGACAGUCCUUCUCUGAGAGAAUUACA", "pre-steady-state target cleavage rate": "0.00128 ± 0.0064"}
{"sequence": "UAGUGACUCACCUUGUCUGAGAGAUUUUGA", "pre-steady-state target cleavage rate": "0.00081 ± 0.014"}
{"sequence": "UAGUCAGUCACCAUCUCUGAGAGAUUAACA", "pre-steady-state target cleavage rate": "0.706 ± 0.04"}
{"sequence": "UAGUGACAGUCCUUCUGUGAGACAUUAACA", "pre-steady-state target cleavage rate": "0.00151 ± 0.0052"}
{"sequence": "UAGUGACACAGCUUCUCUGAGAGAUAUUGA", "pre-steady-state target cleavage rate": "0.000693 ± 0.0061"}
{"sequence": "UAGUGACAGUGCUUCUCUGACAGAUUAACA", "pre-steady-state target cleavage rate": "0.00252 ± 0.0047"}
{"sequence": "UACACUGUCACCUUUCUCUGAGAGAUUAACA", "pre-steady-state target cleavage rate": "0.575 ± 0.029"}
{"sequence": "UAGUCUGUCACCUUCUGACUCUCUAAUUGA [g15:g26:cont:t1A]", "pre-steady-state target cleavage rate": "0.000574 ± 0.0086"}
{"sequence": "AUCACUGUCACCUUCUCUGAGAGAUUAACA [g2:g30:cont:t1A]", "pre-steady-state target cleavage rate": "0.734 ± 0.035"}
{"sequence": "UAGUGACAGUGCAUCUGUGAGAGAUUAACA", "pre-steady-state target cleavage rate": "0.000782 ± 0.0077"}
{"sequence": "UAGUGACAGUGGAUCUCUGAGAGAUUAAUA", "pre-steady-state target cleavage rate": "0.00015 ± 0.026"}
{"sequence": "UACACUCUCACCAUCUCUGAGAGAUUAACA", "pre-steady-state target cleavage rate": "0.406 ± 0.028"}
{"sequence": "UAGUGACUCAGCUUCUCUGAGAGAUUUUGA", "pre-steady-state target cleavage rate": "0.000645 ± 0.0087"}
{"sequence": "UAGUGACAGACCUUCUGAGAGAGAUUUUGA", "pre-steady-state target cleavage rate": "0.000132 ± 0.037"}
{"sequence": "UUCACUGUCACCUUCUCUGUCUGAUUAACA", "pre-steady-state target cleavage rate": "0.00388 ± 0.0041"}
